These are yes or no findings as the source states them, for the method shown. In cells and extracts the contact can be indirect. A result given as binding can be weak or reduced; the word gives no strength.
Molecular target: GST-Rhotekin-RBD (7-89aa) (UniProt Q8C6B2)
Assay: pull-down; CD18/HPAF cell lysates (1% Triton X-100, 10 mM MgCl2, 4°C) incubated 1 h with agarose beads coated with GST-PAK1, GST-WASP or GST-Rhotekin; immunoblot for Rac1, Cdc42 or RhoA; cells treated with vehicle, compounds #1-#10, NSC23766 or EGF, or lysate with 1 mM GDP; only the target purified

Amino acid sequences for entries named in this document (tags omitted). A change or cut given only in a name is not applied to a line headed by its entry.
UniProt Q8C6B2: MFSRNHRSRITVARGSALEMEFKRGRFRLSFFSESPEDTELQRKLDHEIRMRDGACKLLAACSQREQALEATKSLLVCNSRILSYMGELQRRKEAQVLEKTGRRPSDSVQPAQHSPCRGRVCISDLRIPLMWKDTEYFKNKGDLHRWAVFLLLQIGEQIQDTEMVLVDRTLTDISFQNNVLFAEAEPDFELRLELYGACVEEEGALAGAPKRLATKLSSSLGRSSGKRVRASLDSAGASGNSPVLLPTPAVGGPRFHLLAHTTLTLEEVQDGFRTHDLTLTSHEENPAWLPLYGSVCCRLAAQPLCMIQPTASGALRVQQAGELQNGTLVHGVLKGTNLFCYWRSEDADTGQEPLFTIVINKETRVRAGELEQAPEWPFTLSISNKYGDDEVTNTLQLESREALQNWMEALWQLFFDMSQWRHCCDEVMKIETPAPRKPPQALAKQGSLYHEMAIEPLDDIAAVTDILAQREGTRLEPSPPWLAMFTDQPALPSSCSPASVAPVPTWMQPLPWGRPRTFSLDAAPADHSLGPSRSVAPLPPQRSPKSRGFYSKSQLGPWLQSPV
UniProt P61586: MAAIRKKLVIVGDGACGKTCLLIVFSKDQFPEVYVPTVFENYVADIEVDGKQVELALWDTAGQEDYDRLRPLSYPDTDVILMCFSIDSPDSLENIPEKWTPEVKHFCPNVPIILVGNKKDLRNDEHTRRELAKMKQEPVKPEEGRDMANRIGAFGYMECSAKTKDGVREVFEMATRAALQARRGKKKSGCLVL

binding: binds
Substance: RhoA (endogenous, CD18/HPAF cells), GTP-bound (from UniProt P61586 1-193)
